Source: paper PMC6073362

T1: MBP–GW2 (rice (Oryza sativa L.)) (UniProt B9F4Q9)
T1 sequence: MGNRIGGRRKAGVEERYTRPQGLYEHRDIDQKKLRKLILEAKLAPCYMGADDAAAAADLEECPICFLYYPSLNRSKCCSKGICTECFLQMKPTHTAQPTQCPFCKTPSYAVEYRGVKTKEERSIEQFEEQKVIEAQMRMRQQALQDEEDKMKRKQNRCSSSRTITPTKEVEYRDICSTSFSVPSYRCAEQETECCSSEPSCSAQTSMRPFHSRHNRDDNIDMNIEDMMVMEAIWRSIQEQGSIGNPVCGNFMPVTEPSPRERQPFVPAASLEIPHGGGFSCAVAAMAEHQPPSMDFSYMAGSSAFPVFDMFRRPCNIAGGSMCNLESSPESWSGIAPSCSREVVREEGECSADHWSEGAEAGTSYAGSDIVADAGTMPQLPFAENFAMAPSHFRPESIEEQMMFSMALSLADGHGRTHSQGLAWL

B1: AD-GW2 (enzyme, UniProt B9F4Q9 1-425)
chain: T1 sequence

Legend:
[1] = target: T1, MBP–GW2 (rice (Oryza sativa L.)); assay: pull-down; 2 µg MBP–GW2 and 2 µg GST–EXPLA1, 25 °C for 2 h in 50 mM Tris-HCl (pH 7.5), 100 mM NaCl, 1% Triton X-100, 0.2% glycerol, 0.5 mM β-mercaptoethanol; pulled down with amylose resin; GST–EXPLA1 detected with an anti-GST antibody; both purified
EXPLA4 (Gal4 BD fusion) = assay: two-hybrid; AD-GW2 (pGAD424) and BD fusions (pGBT8) co-transformed into yeast AH109; selected on -Leu/-Trp, growth tested on -Leu/-Trp/-His with 5 mM 3-AT
[2] = target: BD-EXPLA1 (rice (Oryza sativa L.)); assay: as above
EXPLA3 (Gal4 BD fusion) = assay: as above

Row | Molecule | binding [1] | binding (EXPLA4 (Gal4 BD fusion)) | binding [2] | binding (EXPLA3 (Gal4 BD fusion))
1 | GST–EXPLA1 (rice (Oryza sativa L.)) | binds | – | – | –
2 | B1 | – | no binding | binds | no binding

Results are given in words; binding and its absence hold for the method and conditions named. For some of these results: A result given as binding can be weak or reduced; the word gives no strength. Tags and fused reporters may be left off the sequences shown.
